The experiment concerns the target TRAK1_(99-532) (human) (UniProt Q9UPV9). Description: mass photometry; Refeyn TwoMP, 125-150 nM protein, 100 mM NaCl, 50 μM MgCl2, 50 μM GTP with 1 mM EGTA or 100 μM CaCl2; both purified.

These are yes or no findings as the source states them, for the method shown. Some binding calls cover weakened binding; strength is not graded here.

B1: TRAK1_(99-532) (domain or fragment, UniProt Q9UPV9 99-532)
chain: AERVGQMTKTYNDIDAVTRLLEEKERDLELAARIGQSLLKKNKTLTERNELLEEQVEHIREEVSQLRHELSMKDELLQFYTSAAEESEPESVCSTPLKRNESSSSVQNYFHLDSLQKKLKDLEEENVVLRSEASQLKTETITYEEKEQQLVNDCVKELRDANVQIASISEELAKKTEDAARQQEEITHLLSQIVDLQKKAKACAVENEELVQHLGAAKDAQRQLTAELRELEDKYAECMEMLHEAQEELKNLRNKTMPNTTSRRYHSLGLFPMDSLAAEIEGTMRKELQLEEAESPDITHQKRVFETVRNINQVVKQRSLTPSPMNIPGSNQSSAMNSLLSSCVSTPRSSFYGSDIGNVVLDNKTNSIILETEAADLGNDERSKKPGTPGTPGSHDLETALRRLSLRRENYLSERRFFEEEQERKLQELAEKGE
With B1, the binding entry is “binds weakly”.

(Values after article PMC10746525.)
